For part of these data: Negatives hold for the conditions tested. For part of these data: A weaker result is weaker than the reference pair of the same experiment. For part of these data: For at least one entry, the source does not settle the construct or the ends of the probe. For part of these data: Results from cells or extracts need not show a direct contact.

Chains of the proteins cited; added tags and fusions are not shown. Chains listed by the source or under a name are the forms on record and can include a tag or linker.
UniProt P61244, other isoform, or with tags, fused parts or gaps: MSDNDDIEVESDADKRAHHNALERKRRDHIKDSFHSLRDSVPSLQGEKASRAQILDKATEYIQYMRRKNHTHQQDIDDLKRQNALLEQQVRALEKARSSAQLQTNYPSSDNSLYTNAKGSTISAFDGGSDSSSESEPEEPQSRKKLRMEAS
GST-Mad:Max heterodimer (Papio (baboon) / Homo sapiens), one chain, as listed by the source, chain 1 of 2: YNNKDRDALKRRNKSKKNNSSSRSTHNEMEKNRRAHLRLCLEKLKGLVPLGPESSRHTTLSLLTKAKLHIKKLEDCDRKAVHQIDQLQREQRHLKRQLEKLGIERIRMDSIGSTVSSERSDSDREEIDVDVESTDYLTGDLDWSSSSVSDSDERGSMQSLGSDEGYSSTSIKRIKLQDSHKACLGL
Mad-1-His6:Max heterodimer (Homo sapiens), one chain, as listed by the source, chain 1 of 2: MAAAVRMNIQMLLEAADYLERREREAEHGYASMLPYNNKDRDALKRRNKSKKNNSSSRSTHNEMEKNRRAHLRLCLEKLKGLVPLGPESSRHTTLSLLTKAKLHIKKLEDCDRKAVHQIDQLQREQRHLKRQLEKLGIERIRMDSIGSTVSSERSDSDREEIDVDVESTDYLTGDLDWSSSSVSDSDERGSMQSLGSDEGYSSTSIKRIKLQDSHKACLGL
c-Myc full length in vitro translated (Homo sapiens), one chain, as listed by the source: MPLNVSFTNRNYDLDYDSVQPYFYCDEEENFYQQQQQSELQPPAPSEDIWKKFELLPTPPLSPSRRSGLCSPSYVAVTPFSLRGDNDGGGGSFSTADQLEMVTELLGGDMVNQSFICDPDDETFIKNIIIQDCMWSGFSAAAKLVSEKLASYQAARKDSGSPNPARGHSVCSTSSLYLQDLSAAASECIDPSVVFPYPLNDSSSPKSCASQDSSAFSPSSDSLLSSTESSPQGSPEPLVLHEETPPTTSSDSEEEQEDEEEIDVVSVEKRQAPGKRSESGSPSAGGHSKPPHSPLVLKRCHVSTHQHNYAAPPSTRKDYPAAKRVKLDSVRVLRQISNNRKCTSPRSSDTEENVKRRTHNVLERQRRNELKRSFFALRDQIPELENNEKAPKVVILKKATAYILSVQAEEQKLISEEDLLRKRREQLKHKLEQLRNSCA
GST-Mad:Max heterodimer (Papio (baboon) / Homo sapiens), one chain, as listed by the source, chain 2 of 2: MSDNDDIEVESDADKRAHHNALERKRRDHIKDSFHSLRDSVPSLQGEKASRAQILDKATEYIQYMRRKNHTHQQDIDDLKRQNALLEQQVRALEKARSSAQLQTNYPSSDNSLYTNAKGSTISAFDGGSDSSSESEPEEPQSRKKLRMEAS

The target of series [1] is Max (p21, 151 aa form, lacks 9-aa insertion) (Homo sapiens) (UniProt P61244). The series can be described thus: competition with a labelled probe. The following applies: 25-100 ng unlabeled MREA does not compete with CM-1; purified recombinant protein.
Series [2] shares this target. The series is described as follows: EMSA. The following applies: supershift with anti-Max; 5 mM MgCl2, 50 mM KCl, 4 C gel; purified recombinant protein; label: 32P.
Series [3] concerns GST-Mad:Max heterodimer (Papio (baboon) / Homo sapiens). The series can be described thus: EMSA. The conditions noted are these: supershift with anti-Max and anti-GST; heterodimer favored over Max:Max; purified recombinant protein; protein details: GST on Mad; label: 32P.
Series [4] deals with USF (endogenous in reticulocyte lysate). The series is described as follows: EMSA. The following applies: background band of unprogrammed lysate, altered by anti-USF (unpublished data); protein in an extract; label: 32P.
For series [5], the target named is Max (p21) in vitro translated (Homo sapiens) (UniProt P61244). The series is described as follows: EMSA. The following applies: no additional binding over lysate background; protein translated in vitro; label: 32P.
Series [6] relates to c-Myc full length in vitro translated (Homo sapiens). The series can be described thus: EMSA. The following applies: protein translated in vitro; label: 32P.
The subject of series [7] is Mad-1-His6:Max heterodimer (Homo sapiens). The series is described as follows: EMSA. The following applies: similar affinity to Myc:Max; purified recombinant protein; protein details: His6 on Mad; label: 32P.
The subject of series [8] is GST-Mad:Max CKII-phosphorylated (Papio (baboon) / Homo sapiens). The series can be described thus: EMSA. The conditions noted are these: binding unaffected by CKII phosphorylation; purified recombinant protein; protein details: GST on Mad, CKII + ATP treated Max; label: 32P.
Series [9] relates to c-Myc deltaBR:Max c-Myc deletion of 353-367 (Homo sapiens). The series can be described thus: EMSA. The following applies: still associates with Max; protein translated in vitro; label: 32P.
The target in series [10] is Max CKII-phosphorylated (Homo sapiens) (UniProt P61244). The series can be described thus: EMSA. The following applies: CKII + ATP abolishes homodimer binding; purified recombinant protein; protein details: CKII + ATP treated, baculovirus Sf9; label: 32P.
The test system of series [11] is c-Myc deltaLZ + Max c-Myc deletion of 416-439 (Homo sapiens). The series is described as follows: EMSA. The following applies: protein translated in vitro; label: 32P.
Series [12] deals with mSin:Mad:Max ternary complex. The series is described as follows: binding assay. The following applies: ternary complex binding stated without data; method not stated; protein translated in vitro; cited from earlier work.

On to “TCGAGTAAGACACCCGTTACTTTACG (double strand) [MREA (Mim-1 promoter)]”, for which, in [1], the binding result is “no binding”.
“CCCCCACCACGTGGTGCCTGA (double strand) [CM-1]”: the binding result in [2] is given as “binds”; in series [3], “binds”; in series [4], “binds”; in series [5], “no binding”; in series [6] it was “binds more weakly”; in [7] it was “binds”. The binding result is listed as “binds” in series [8], “no binding” in [9], “no binding” in series [10] and “no binding” in series [11].
Regarding CACGTG (double strand) [CACGTG E-box], the binding result in [12] was “binds”.

The values are drawn from patent US5624818.
